Results are given in words; binding and its absence hold for the method and conditions named. For some assays here: In cells and extracts the contact can be indirect. Some results given as binding are weak or reduced against the parent protein; the word gives no strength. Tags and fused reporters may be left off the sequences shown.
Tests used:
[1] = biological target: T1, GAL4-β-catenin fusion protein (GAL4 BD fused with mβ-catenin arm, residues 141 to 664) (yeast; mouse) (UniProt P04386+Q02248); assay: yeast two-hybrid screen of a mouse fetal cDNA library, HIS3 and lacZ reporters
[2] = biological target: armadillo domain of mouse β-catenin (residues 141 to 664), ^35S-labeled (mouse) (UniProt Q02248); assay: GST/ICAT pull-down of ^35S-labeled in vitro translated fragment, autoradiography
[3] = biological target: mouse β-catenin (mouse) (UniProt Q02248); assay: pull-down on glutathione-Sepharose 4B of ^35S-labeled β-catenin, SDS-PAGE, autoradiography
[4] = biological target: armadillo domain of mouse β-catenin (residues 141 to 664), ^35S-labeled (mouse) (UniProt Q02248); assay: restates the GST/ICAT pull-down of Example 8
[5] = biological target: T1, GAL4-β-catenin fusion protein (GAL4 BD fused with mβ-catenin arm, residues 141 to 664) (yeast; mouse); assay: yeast two-hybrid, β-galactosidase activity
[6] = biological target: T1, GAL4-β-catenin fusion protein (GAL4 BD fused with mβ-catenin arm, residues 141 to 664) (yeast; mouse); assay: restates the yeast two-hybrid result of Example 11(1)

Amino acid sequences for entries named in this document (tags omitted). A change or cut given only in a name is not applied to a line headed by its entry. Residues count along the entry.
UniProt P04386: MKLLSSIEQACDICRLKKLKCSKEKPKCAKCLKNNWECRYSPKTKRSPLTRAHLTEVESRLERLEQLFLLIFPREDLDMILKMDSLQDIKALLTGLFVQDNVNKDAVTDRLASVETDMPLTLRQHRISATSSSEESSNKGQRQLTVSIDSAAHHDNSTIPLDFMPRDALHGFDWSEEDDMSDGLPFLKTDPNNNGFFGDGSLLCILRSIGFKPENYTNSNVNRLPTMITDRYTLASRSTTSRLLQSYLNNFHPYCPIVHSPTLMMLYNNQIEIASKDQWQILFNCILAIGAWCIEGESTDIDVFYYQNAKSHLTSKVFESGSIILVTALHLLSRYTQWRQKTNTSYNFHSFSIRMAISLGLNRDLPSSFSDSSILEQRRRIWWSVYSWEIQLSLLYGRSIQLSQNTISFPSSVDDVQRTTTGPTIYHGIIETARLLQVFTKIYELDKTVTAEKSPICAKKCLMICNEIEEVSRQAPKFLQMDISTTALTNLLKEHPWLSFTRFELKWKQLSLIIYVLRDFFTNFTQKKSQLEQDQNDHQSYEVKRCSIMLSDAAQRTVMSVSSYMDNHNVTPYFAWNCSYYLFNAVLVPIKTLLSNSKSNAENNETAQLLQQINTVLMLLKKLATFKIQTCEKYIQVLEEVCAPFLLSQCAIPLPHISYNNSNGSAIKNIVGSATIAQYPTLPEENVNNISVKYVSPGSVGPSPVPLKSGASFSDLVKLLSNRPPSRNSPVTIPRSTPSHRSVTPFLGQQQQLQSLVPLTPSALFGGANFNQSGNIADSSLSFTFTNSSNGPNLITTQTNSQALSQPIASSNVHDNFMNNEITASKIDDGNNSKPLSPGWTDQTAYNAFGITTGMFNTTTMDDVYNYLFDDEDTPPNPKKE
UniProt Q02248: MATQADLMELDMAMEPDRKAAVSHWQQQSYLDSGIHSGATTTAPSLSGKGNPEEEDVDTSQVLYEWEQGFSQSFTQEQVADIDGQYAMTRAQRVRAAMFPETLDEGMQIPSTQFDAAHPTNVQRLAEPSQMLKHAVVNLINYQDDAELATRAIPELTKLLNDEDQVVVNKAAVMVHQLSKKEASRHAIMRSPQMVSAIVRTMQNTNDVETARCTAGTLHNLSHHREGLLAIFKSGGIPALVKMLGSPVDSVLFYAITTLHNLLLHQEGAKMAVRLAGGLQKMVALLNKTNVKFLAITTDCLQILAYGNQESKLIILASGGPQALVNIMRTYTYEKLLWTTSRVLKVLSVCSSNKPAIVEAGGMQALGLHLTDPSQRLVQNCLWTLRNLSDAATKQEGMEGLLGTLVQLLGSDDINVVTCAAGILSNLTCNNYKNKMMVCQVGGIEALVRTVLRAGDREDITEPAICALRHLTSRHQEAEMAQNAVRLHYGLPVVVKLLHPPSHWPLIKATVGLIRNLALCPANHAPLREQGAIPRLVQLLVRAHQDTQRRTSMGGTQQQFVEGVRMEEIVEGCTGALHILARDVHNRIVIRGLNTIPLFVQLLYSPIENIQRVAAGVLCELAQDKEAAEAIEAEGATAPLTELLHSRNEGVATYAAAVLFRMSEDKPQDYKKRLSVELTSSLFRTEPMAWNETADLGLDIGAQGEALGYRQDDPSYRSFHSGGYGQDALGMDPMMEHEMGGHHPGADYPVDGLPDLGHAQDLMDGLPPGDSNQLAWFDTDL
mouse β-catenin: residues 2-781 of Q02248
armadillo domain of mouse β-catenin (residues 141 to 664), ^35S-labeled: residues 141-664 of Q02248

B1: GAL4 AD fusion of mouse normal ICAT (two-hybrid prey) (protein, not shown: large carriers)
chain: MNREGAPGKSPEEMYIQQKVRVLLMLRKMGSNLTASEEEFLRTYAGVVSSQLSQLPQHSIDQGAEDVVMAFSRSETEDRRQ
With B1 the binding [1] was “binds”.

B2: GST/ICAT (fusion protein between GST and ICAT) (protein, not shown: a dimerising Fc or GST)
chain: B1 chain
With B2 the binding [2] was “binds”, the binding [3] was “binds” and the binding [4] was “binds”.

B3: ICAT (1-61), GAL4 AD fusion (protein, not shown: large carriers)
chain: MNREGAPGKSPEEMYIQQKVRVLLMLRKMGSNLTASEEEFLRTYAGVVSSQLSQLPQHSID
In the case of B3, the binding [5] is reported as “binds”.

B4: ICAT (13-81), GAL4 AD fusion (protein, not shown: large carriers)
chain: EMYIQQKVRVLLMLRKMGSNLTASEEEFLRTYAGVVSSQLSQLPQHSIDQGAEDVVMAFSRSETEDRRQ
For B4, the binding [6] was “binds” and the binding [5] was “binds”.

EMYIQQKVRVLLMLRKMGSNLTASEEEFLRTYAGVVSSQLSQLPQHSID (peptide, not shown: large carriers) [ICAT(13-61), GAL4 AD fusion] was tested, and the binding [5] was “binds”.

Source: patent US7250488
